Source: PubChem BioAssay AID2685 (National Center for Advancing Translational Sciences (NCATS), 2010)
Hit rate of the full screen: of about 320,000 compounds, about 2,100 (0.66%) were called active. The shares of active, inactive and inconclusive entries below differ from those in the screen. Calls follow the shape of the dose curve; as a rule, active = well fitted inhibition curve with a large enough effect in the signal ratio, with a control signal flat (not every such curve was filed as active); inconclusive = small, poorly fitted or top-dose-only effect, or effect the other way, or a change in a side signal; inactive = flat fitted curve, though single readings scatter; the % refers to the signal ratio. Where the call is inconclusive, the potency comes from a doubtful curve fit.

assay: qHTS Assay for Lipid Storage Modulators in Drosophila S3 Cells; details: BODIPY lipid droplet fluorescence, 18-24 h, cells fed with added oleic acid; lipid storage change, negative = inhibition: at 46.1 µM (top of the series) unless noted
Procedure, shortened: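 Drosophila S3 cells loaded with oleic acid (400 uM, as added) and compounds at several concentrations; lipid droplets imaged by 488-nm laser-scanning cytometry, 500–530 nm intensity and object ratio to cell channel. Percent activity normalized to 20 uM Triacsin C.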
% is scaled to controls: 0 for no effect and ±100 for the full control effect; potency is read from the fitted curve at half-maximal effect.

| SMILES | lipid storage change, negative = inhibition | Potency |
| --- | --- | --- |
| CN(Cc1cn(Cc2ccccc2)nc1-c1ccc2c(c1)OCO2)Cc1nccn1C | inconclusive: 13.2% | – |
| CCCCNC(=O)CN1C(=O)C(CC)Oc2ccc(Cl)cc21 (configuration not stated) | – | inconclusive: 2.91 µM [falling, partial curve] |
| Cc1ccc(C(=O)NNC(=O)c2ccc(Br)s2)cc1S(=O)(=O)N1CCOCC1 | inconclusive: 17% | – |
| COCCn1nnnc1C(c1cc(OC)ccc1OC)N1CCc2ccccc2C1 (configuration not stated) | – | inconclusive: 3.26 µM [activator, single point] |
| O=C(c1cc(Cl)ccc1[N+](=O)[O-])N1CCc2ccccc2C1 | – | inconclusive: 5.8 µM [activator, partial curve, poor fit] |
| Cn1c(=O)n(C)c2cc(C(=O)O)ccc21 | inconclusive: -45% | – |
| O=C(CC1Nc2ccccc2NC1=O)Nc1ccc2c(c1)OCO2 (configuration not stated) | inconclusive: 3.4% | – |
| CC(CCc1ccc(O)cc1)NCc1ccc(Cl)cc1Cl (configuration not stated) | inconclusive: 0.413% | – |
| Cc1cc(C)cc(NC(=O)c2cc3c(=O)n4ccccc4nc3s2)c1 | – | active: 6.51 µM |
| c1ccc2c(c1)c1cccc3ccc4cccc2c4c31 | inconclusive: -14.5% | – |
| Cc1c(C(C)O)nnn1-c1nonc1N (configuration not stated) | inconclusive: -21.1% | – |
| O=[N+]([O-])c1ccc(CSc2ccc(S(=O)(=O)N3CCCCCC3)cn2)cc1 | inconclusive | – |
| CC(=O)Nc1cccc(C(=O)OCC(=O)NC(=O)c2ccccc2)c1 | inconclusive | – |
| CC12CCC(C(N)=O)(c3nc4ccccc4nc31)C2(C)C (configuration not stated) | inconclusive: 24.1% | – |
| CCN(C(=O)CSc1ncnc2sc(C)c(C)c12)C1CCS(=O)(=O)C1 (configuration not stated) | inconclusive: 10.9% | – |
| CC(=O)NC(C)c1cc(Cl)c2ccccc2c1O (configuration not stated) | inconclusive: -39.1% | – |
| O=C(COC(=O)C1CC2CCCC(C1)C2=O)NC(=O)c1ccc(OC(F)F)cc1 (configuration not stated) | inconclusive: -21.3% | – |
| CN1CCN(C(=O)C23CC4CC(C)(CC(C)(C4)C2)C3)CC1 | inconclusive: -27.3% | – |
| Cc1ccc(C(=O)Nc2ccc(C(=O)N/N=C/c3cccnc3)cc2)cc1 | inactive | – |
| COC(=O)n1c(=O)oc2cc(S(=O)(=O)N3CCCCC3)ccc21 | inconclusive: -11.1% | – |
| COc1cc(S(=O)(=O)NCc2ccccn2)c(OC)cc1Cl | inactive | – |
| O=C(Nc1ccc2c(c1)nc1n2CCOC1)c1ccco1 | inconclusive: 16.3% | – |
| O=C1NC(=S)N/C1=C/c1cc2c(cc1[N+](=O)[O-])OCO2 | inconclusive: 43.6% | – |
| C1=C(CCNCC2CC2)CCCC1 | inconclusive: 5.12% | – |
| CCOC(=O)c1c(C)n(C)c2ccc(O)c(CN3CCC(C)CC3)c12 | – | inconclusive: 6.51 µM [rising, single point] |
| CC1CCCC(C)N1C(=O)CSc1nnc(-c2c[nH]c3ccccc23)o1 (configuration not stated) | – | inconclusive: 0.103 µM [activator, full curve, poor fit] |

| SMILES | lipid storage change, negative = inhibition | Potency |
| --- | --- | --- |
| Cc1cc(C)c(NC(=O)c2ccc3nccnc3c2)c(C)c1 | inconclusive | – |
| c1ccc2cc(CSCc3nc4ccccc4[nH]3)ccc2c1 | inconclusive: 33.4% | – |
| COc1ccc(CNC(=O)C2CCCN(S(=O)(=O)c3cccc4nsnc34)C2)cc1 (configuration not stated) | – | inconclusive: 0.651 µM [activator, full curve] |
| COc1ccc(OC)c(Nc2nc(-c3cccs3)cs2)c1 | – | inconclusive: 2.31 µM [activator, single point] |
| CCOC(=O)C1CCCCN1C(=O)CCn1nnnc1CN1CCOCC1 (configuration not stated) | inconclusive: -10.5% | – |
| CCCOc1ccc(CNC(=S)NCc2ccc(OC(C)C)cc2)cc1 | inconclusive: 10.9% | – |
| O=c1[nH]c(=O)n(-c2ccc(F)cc2)c2c1C(C(F)(F)F)(C(F)(F)F)N=C(c1ccc(F)cc1)N2 | – | inconclusive: 20.6 µM [falling, partial curve, poor fit] |
| COc1cc(NC(=O)Nc2c(C)n(C)n(-c3ccccc3)c2=O)cc(OC)c1OC | inconclusive: 11.9% | – |
| O=S(=O)(NCC(c1ccco1)N1CCN(c2ccccc2F)CC1)c1ccc(F)cc1 (configuration not stated) | inconclusive: 17.1% | – |
| O=C(NCC(=O)N(c1ccccc1)C(C(=O)NCC1CCCO1)c1ccccc1)c1ccco1 (configuration not stated) | inconclusive: 49.8% | – |
| O=C(NCC(c1ccco1)N1CCN(c2ccccc2F)CC1)C(=O)NC1CCCC1 (configuration not stated) | inconclusive: 42.4% | – |
| C=CCn1c(NCc2ccc(OC)cc2O)nc2ccccc21 | inconclusive: 10.5% | – |
| CSc1ccc(/C=C/C(=O)c2ccc(NC(C)=O)cc2)cc1 | inactive | – |
| CCN(CC)CCCNC(=O)Cc1c(C(=O)O)n(C)c2ccccc12 | – | inconclusive: 5.17 µM [falling, full curve] |
| O=C(O)CC1S/C(=N/N=C/c2ccc(-c3ccccc3[N+](=O)[O-])o2)NC1=O (configuration not stated) | – | inconclusive: 16.4 µM [activator, single point] |
| Cc1ccc(-c2csc3ncnc(N4CCN(C(=O)c5ccco5)CC4)c23)cc1 | inconclusive: 5.67% | – |
| Cc1cc(C(=O)CN2C(=O)NC3(CCCc4ccccc43)C2=O)c(C)n1Cc1ccco1 (configuration not stated) | – | inconclusive: 9.2 µM [activator, partial curve] |
| CC1(C)CC(=O)C/C(=N\NC(=O)c2cccs2)C1 | inconclusive: -1.62% | – |
| CCOc1ccc(/C(O)=C2/C(=O)C(=O)N(CCOCCO)C2c2cccnc2)cc1 (configuration not stated) | inconclusive: 111% | – |
| CCNC(=S)Nc1cccc(F)c1C | inconclusive: -31.6% [at 0.369 µM] | – |
| COc1cccc(CN(C(=O)CN2C(=O)c3ccccc3S2(=O)=O)C(C(=O)NCC2CCCO2)c2ccco2)c1 (configuration not stated) | – | inconclusive: 0.0065 µM [activator, full curve, poor fit] |
| CCC1CCCCN1C(=O)COc1ccc2c(c1)OCO2 (configuration not stated) | inconclusive: -13.4% | – |
| Cc1ccc(NC(=O)CN2CCN(C)CC2)cc1Br | inconclusive: 81.8% | – |
| Cc1ccc(CNC(=O)CCC2CCCN(Cc3ccc4cccc(F)c4n3)C2)o1 (configuration not stated) | inconclusive: 13.5% | – |
| Cc1cccc(-n2cc(-c3ccccc3)c3c(N4CCOCC4)ncnc32)c1 | inactive | – |
| COc1ccc(S(=O)(=O)Nc2ccccc2OC)cc1NC(=O)Cc1cccs1 | – | inconclusive: 0.651 µM [activator, partial curve] |

In a second layout: 4 of the compounds above
SMILES	lipid storage change, negative = inhibition	Potency
CCOc1ccc(/C(O)=C2/C(=O)C(=O)N(CCOCCO)C2c2cccnc2)cc1 (configuration not stated)	inconclusive: 111%	–
CCNC(=S)Nc1cccc(F)c1C	inconclusive: -31.6% [at 0.369 µM]	–
COc1cccc(CN(C(=O)CN2C(=O)c3ccccc3S2(=O)=O)C(C(=O)NCC2CCCO2)c2ccco2)c1 (configuration not stated)	–	inconclusive: 0.0065 µM [activator, full curve, poor fit]
CCC1CCCCN1C(=O)COc1ccc2c(c1)OCO2 (configuration not stated)	inconclusive: -13.4%	–
